According to PubChem BioAssay (NCATS):
The list shows a part of the results. The main result of the screen is listed elsewhere. These columns were measured beside it and carry no call. Most of these compounds were active or inconclusive in the main read-out, so they are no random draw. Words in brackets tell the shape of the fitted curve; partial curves, single points and poor fits give uncertain potencies.

Test: qHTS Assay for Modulators of Human Peripheral Myelin Protein 22 (PMP22) Expression/Activity (AID 1967)
Conditions: Cell-based PMP22 reporter, dual-color luciferase ratio; measured here: green reporter channel AC50; mouse Pmp22 promoter in mouse Schwann cells
Outline: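 Mouse MSC80 Schwann line, Pmp22 promoter–CBG68 reporter, EF-alpha–CBR internal control. 24h compound exposure, 37 °C/5% CO2, DMEM + 10% FBS. Readout: corrected green/red luminescence ratio, normalized to untreated cells; concentration-response curves fitted and classified.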

| SMILES | AC50 |
| --- | --- |
| Oc1ccc2c3c1O[C@H]1c4oc5ccccc5c4C[C@@]4(O)C(C2)N(CC2CC2)CCC314 (stereo not given in full) | 67.5 µM [falling, partial curve, poor fit] |
| CN[C@@H](C)[C@H](O)c1ccccc1 | 33.8 µM [falling, full curve] |
| NC(=O)C1=CN(C2OC(COP(=O)(O)OP(=O)(O)OC[C@H]3O[C@@H](n4cnc5c(N)ncnc54)[C@H](OP(=O)(O)O)[C@H]3O)C(O)C2O)C=CC1 (stereo not given in full) | 6.75 µM [rising, full curve, poor fit] |

Same assay, conditions: Cell-based PMP22 reporter, dual-color luciferase ratio; measured here: red reporter channel AC50; EF-alpha promoter control reporter in MSC80 mouse Schwann cells

| SMILES | AC50 |
| --- | --- |
| O=C(O)Cc1cnc[nH]1 | 95.3 µM [falling, single point] |
| NC(CCCP(=O)(O)O)C(=O)O (stereo not given) | 15.1 µM [rising, partial curve, poor fit] |
| CC(C)N(CCC(C(N)=O)(c1ccccc1)c1ccccn1)C(C)C (stereo not given) | 13.5 µM [rising, partial curve, poor fit] |
| CC(N)Cc1c[nH]c2ccc(OCc3cccs3)cc12 (stereo not given) | 37.9 µM [falling, partial curve] |
| CC[C@@H]1C(=O)OC[C@@H]1Cc1cncn1C | 95.3 µM [falling, single point] |
| CCC(CO)NC(=O)[C@@H]1C=C2c3cccc4[nH]cc(c34)C[C@H]2N(C)C1 (stereo not given in full) | 84.9 µM [falling, single point] |
| O=C(Cc1ccc(Cl)c(Cl)c1)N1CCCCC1CN1CCCC1 (stereo not given) | 67.5 µM [falling, partial curve, poor fit] |
| C=CCN1C[C@@H](C)N([C@H](c2ccc(C(=O)N(CC)CC)cc2)c2cccc(OC)c2)C[C@@H]1C | 95.3 µM [falling, single point] |
| NC1C=CC=C(C(=O)O)C1 (stereo not given) | 23.9 µM [rising, single point] |
| CN(C(=O)Cc1ccc(Cl)c(Cl)c1)C(CN1CCCC1)c1cccc(OCC(=O)O)c1 (stereo not given) | 95.3 µM [falling, single point] |
| NCCCCN=C(N)N | 95.3 µM [falling, single point] |
| CS(=N)(=O)CC[C@H](N)C(=O)O (stereo not given in full) | 16.9 µM [rising, partial curve, poor fit] |
| NC(=O)COc1c(F)cc(SCCNS(=O)(=O)c2ccccc2)cc1F | 95.3 µM [falling, single point] |
| COc1cc(C=C(C#N)C#N)cc(O)c1O | 42.6 µM [falling, full curve] |
| CC(C)COC(=O)OCN1C(=O)CN(CCN2CC(=O)N(COC(=O)OCC(C)C)C(=O)C2)CC1=O | 75.7 µM [falling, partial curve, poor fit] |
| Nc1ccc(CCN2CCN(c3cccc(C(F)(F)F)c3)CC2)cc1 | 75.7 µM [falling, partial curve, poor fit] |
| CCN(CC)C(=O)N[C@@H]1C[C@@H]2c3cccc4[nH]cc(c34)C[C@H]2N(C)C1 | 84.9 µM [falling, single point] |
| Nc1nc(OCc2ccccc2)c2[nH]cnc2n1 | 42.6 µM [falling, partial curve] |

| SMILES | AC50 |
| --- | --- |
| Cc1nc2n(c(=O)c1CCN1CCC(c3noc4cc(F)ccc34)CC1)CCCC2 | 75.7 µM [falling, single point] |
| CCCCCCCCCC[Si](C)(C)CCC(=O)NC(Cc1ccc(C)cc1)c1ccccc1 (stereo not given) | 84.9 µM [falling, single point] |
| Oc1ccc2c3c1O[C@H]1c4oc5ccccc5c4C[C@@]4(O)C(C2)N(CC2CC2)CCC314 (stereo not given in full) | 84.9 µM [falling, partial curve, poor fit] |
| CCCN(CCC)CCc1c[nH]c2ccc(C(N)=O)cc12 | 37.9 µM [rising, single point] |
| C=CCN1CCC2(C)c3cc(O)ccc3CC1C2C (stereo not given) | 16.9 µM [rising, single point] |
| CN[C@@H](C)[C@H](O)c1ccccc1 | 26.9 µM [falling, full curve] |
| CCCCCCCCC(=O)NCc1ccc(O)c(OC)c1 | 8.49 µM [rising, partial curve, poor fit] |
| CCCC[N+]1(C)C2CC(OC(=O)C(CO)c3ccccc3)CC1C1OC12 (stereo not given) | 84.9 µM [falling, single point] |
| COc1nc(C)nc(Cl)c1NC1=NCCN1 | 95.3 µM [falling, single point] |
| CN1C(=O)CCS(=O)(=O)C1c1ccc(Cl)cc1 (stereo not given) | 75.7 µM [falling, single point] |
| Nc1nc2[nH]c(=O)cnc2c(=O)[nH]1 | 84.9 µM [falling, single point] |
| NC(=O)C1=CN(C2OC(COP(=O)(O)OP(=O)(O)OC[C@H]3O[C@@H](n4cnc5c(N)ncnc54)[C@H](OP(=O)(O)O)[C@H]3O)C(O)C2O)C=CC1 (stereo not given in full) | 95.3 µM [falling, single point] |
| CCCN(CCC)[C@@H]1CCc2cccc(O)c2C1 | 10.7 µM [rising, partial curve] |
| OCc1cnc[nH]1 | 84.9 µM [falling, single point] |
| CC1Cc2cc3c(cc2C(c2ccc(N)cc2)=NN1)OCO3 (stereo not given) | 95.3 µM [falling, single point] |
| NC(=O)c1ncn([C@@H]2O[C@H](CO)[C@@H](O)[C@H]2O)n1 | 23.9 µM [falling, partial curve] |
| NC(N)=NOCC[C@H](N)C(=O)O | 95.3 µM [falling, single point] |
| Cc1c(OCC(F)(F)F)ccnc1CS(=O)c1nc2ccccc2[nH]1 (stereo not given) | 95.3 µM [falling, single point] |
